{
  "source": "patent US20240424043A1",
  "about": "“COMPOSITION FOR PREVENTING OR TREATING MUSCLE DISEASE COMPRISING ARALIA ELATA EXTRACT” (KOREA INSTITUTE OF SCIENCE AND TECHNOLOGY, priority 2023, published 2024)",
  "key": {"[1]": {"system": "Ppargc1a, UCp3, Tomm20, and Tfam gene expression in C2C12 mouse-derived cells", "assay": "RT-qPCR of exercise performance-related gene expression", "assay_type": "cell-based", "details": "dexamethasone 10 μM, beta-actin control, reduced by dexamethasone, FIG. 9", "protocol": "(§1) C2C12 mouse-derived endodermal cells treated with dexamethasone 10 μM were washed twice with PBS, and total RNA was extracted according to the user-recommended protocol of an RNA extraction kit (GeneAll RNA isolation kit, Seoul, South Korea). cDNA was synthesized from the extracted RNA, and subjected to real time-quantitative polymerase chain reaction (RT-qPCR). PCR analysis was performed according to the user-recommended cycling conditions of the analyzer (Applied Biosystems 7900 HT thermal cycler, Applied Biosystems). To determine the expression level of each mRNA, fold change values relative to the control were calculated using beta-actin as an endogenous control, and relative expression levels were compared."}, "[2]": {"system": "Ppargc1a, UCp3, Tomm20, and Tfam gene expression in C2C12 mouse-derived endodermal cells", "assay": "RT-qPCR of exercise performance-related gene expression", "assay_type": "cell-based", "details": "dexamethasone 10 μM, beta-actin control, reduced by dexamethasone, FIG. 9", "protocol": "as §1"}, "[3]": {"system": "Mstn, Myd1, Myog, and Myf5 gene expression in C2C12 mouse-derived myotubes", "assay": "RT-qPCR of muscle cell differentiation-related gene expression", "assay_type": "cell-based", "details": "dexamethasone 10 μM, beta-actin control, FIG. 7", "protocol": "as §1, with “mouse-derived myotubes” for “mouse-derived endodermal cells”, “extracted RNA” for “extracted RNA,”, “(RT-qPCR). POR” for “(RT-qPCR). PCR”"}, "C2C12 myotubes": {"system": "C2C12 myotubes", "assay": "Oxidative stress (GSH content) and mitochondrial function in dexamethasone-treated myotubes", "assay_type": "cell-based, mouse", "details": "20 μM compound, 100 μM dexamethasone for 24 hours, FIG. 8", "protocol": "Cell culture and differentiation of myoblasts: C2C12 mouse (CRL1772; American type cell collection, USA) derived myoblasts were cultured in Dulbecco's Modified Eagle's Medium (DMEM) medium supplemented with 10 (v/v) % FBS, and after reaching 90% confluence, they were transferred to DMEM medium containing 2 (v/v) % horse serum and cultured for 7 days to differentiate into myotubes.\nAs in Example 4, C2C12 myoblasts were differentiated into myotubes, and then treated with 100 μM of dexamethasone for 24 hours to induce oxidative stress or mitochondrial dysfunction, and then treated with 20 μM of three compounds (catechol, 4-ethyl catechol, and methyl dihydroxycaffeate) isolated from the extract of Aralia Elata to determine their efficacy in ameliorating oxidative stress and mitochondrial dysfunction. […] Furthermore, the mitochondrial dysfunction induced by dexamethasone treatment was ameliorated by treatment with the present compound derived from the extract of Aralia Elata (FIG. 8)."}},
  "note": "For at least one compound, name, drawing or mass did not settle the structure.",
  "data": [
    {"molecule": "C[C@H]1O[C@H](O[C@H]2[C@H](Oc3cc(O)c4c(=O)c(O)c(-c5ccc(O)c(O)c5)oc4c3)O[C@H](CO)[C@@H](O)[C@@H]2O)[C@@H](O)[C@@H](O)[C@@H]1O", "note": "[Compound 9, Methyl dihydroxycaffeate]", "values": [
      {"measurement": "Ppargc1a gene expression", "setting": "[1]", "value": "increased"},
      {"measurement": "Tfam gene expression", "setting": "[2]", "value": "increased"},
      {"measurement": "Tomm20 gene expression", "setting": "[2]", "value": "increased"},
      {"measurement": "UCp3 gene expression", "setting": "[2]", "value": "increased"},
      {"measurement": "Mstn gene expression (marker of muscle growth inhibition)", "setting": "[3]; increased by dexamethasone", "value": "decreased"},
      {"measurement": "Myd1 gene expression (marker of myogenic differentiation)", "setting": "[3]; reduced by dexamethasone", "value": "increased"},
      {"measurement": "Myf5 gene expression (marker of myogenic differentiation)", "setting": "[3]; reduced by dexamethasone", "value": "increased"},
      {"measurement": "Myog gene expression (marker of myogenic differentiation)", "setting": "[3]; reduced by dexamethasone", "value": "increased"},
      {"measurement": "mitochondrial dysfunction induced by dexamethasone treatment", "setting": "C2C12 myotubes", "value": "ameliorated"},
      {"measurement": "glutathione (GSH) content", "setting": "C2C12 myotubes; decreased by dexamethasone", "value": "increased again"}
    ]}
  ]
}
